The target in this assay is transcription factor Sp1 (mouse (endogenous in 4T1, 168FARN and 67NR)) (UniProt O89090). The assay can be described thus: co-IP; nuclear extracts of 4T1, 168FARN and 67NR cells in RIPA buffer, pre-cleared with protein A/G agarose; IP overnight at 4°C with antibody against Brg-1 or Sp1 (rabbit IgG as control), protein A/G agarose, washed with RIPA buffer, immunoblot for Brg-1 or Sp1; also 4T1 cells treated with fenretinide for 24 hrs (IP with Sp1 antibody; interaction increased). On the technique in general: A western blot detects proteins with antibodies after separation by electrophoresis.

The chains behind the UniProt entries cited, without tags or fusion partners.
UniProt O89090: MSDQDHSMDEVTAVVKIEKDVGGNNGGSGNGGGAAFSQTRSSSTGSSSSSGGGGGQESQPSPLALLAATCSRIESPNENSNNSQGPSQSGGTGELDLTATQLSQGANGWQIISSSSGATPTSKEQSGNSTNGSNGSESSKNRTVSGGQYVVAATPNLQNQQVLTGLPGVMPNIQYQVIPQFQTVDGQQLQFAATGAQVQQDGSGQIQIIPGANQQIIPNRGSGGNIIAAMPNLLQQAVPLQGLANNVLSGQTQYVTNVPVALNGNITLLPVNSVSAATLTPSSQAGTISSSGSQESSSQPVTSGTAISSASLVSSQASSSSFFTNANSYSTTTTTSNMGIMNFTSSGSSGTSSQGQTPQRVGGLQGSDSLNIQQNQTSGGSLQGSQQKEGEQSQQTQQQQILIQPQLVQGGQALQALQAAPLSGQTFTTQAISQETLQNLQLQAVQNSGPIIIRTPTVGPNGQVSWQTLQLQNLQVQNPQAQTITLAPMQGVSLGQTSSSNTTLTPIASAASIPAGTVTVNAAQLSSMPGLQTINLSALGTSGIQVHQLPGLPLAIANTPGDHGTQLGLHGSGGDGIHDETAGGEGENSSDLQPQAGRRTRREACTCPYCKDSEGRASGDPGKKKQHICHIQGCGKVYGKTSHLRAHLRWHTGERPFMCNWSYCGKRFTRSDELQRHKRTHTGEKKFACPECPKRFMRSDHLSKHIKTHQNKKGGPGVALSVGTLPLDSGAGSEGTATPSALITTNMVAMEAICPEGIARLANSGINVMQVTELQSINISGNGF
UniProt Q3TKT4: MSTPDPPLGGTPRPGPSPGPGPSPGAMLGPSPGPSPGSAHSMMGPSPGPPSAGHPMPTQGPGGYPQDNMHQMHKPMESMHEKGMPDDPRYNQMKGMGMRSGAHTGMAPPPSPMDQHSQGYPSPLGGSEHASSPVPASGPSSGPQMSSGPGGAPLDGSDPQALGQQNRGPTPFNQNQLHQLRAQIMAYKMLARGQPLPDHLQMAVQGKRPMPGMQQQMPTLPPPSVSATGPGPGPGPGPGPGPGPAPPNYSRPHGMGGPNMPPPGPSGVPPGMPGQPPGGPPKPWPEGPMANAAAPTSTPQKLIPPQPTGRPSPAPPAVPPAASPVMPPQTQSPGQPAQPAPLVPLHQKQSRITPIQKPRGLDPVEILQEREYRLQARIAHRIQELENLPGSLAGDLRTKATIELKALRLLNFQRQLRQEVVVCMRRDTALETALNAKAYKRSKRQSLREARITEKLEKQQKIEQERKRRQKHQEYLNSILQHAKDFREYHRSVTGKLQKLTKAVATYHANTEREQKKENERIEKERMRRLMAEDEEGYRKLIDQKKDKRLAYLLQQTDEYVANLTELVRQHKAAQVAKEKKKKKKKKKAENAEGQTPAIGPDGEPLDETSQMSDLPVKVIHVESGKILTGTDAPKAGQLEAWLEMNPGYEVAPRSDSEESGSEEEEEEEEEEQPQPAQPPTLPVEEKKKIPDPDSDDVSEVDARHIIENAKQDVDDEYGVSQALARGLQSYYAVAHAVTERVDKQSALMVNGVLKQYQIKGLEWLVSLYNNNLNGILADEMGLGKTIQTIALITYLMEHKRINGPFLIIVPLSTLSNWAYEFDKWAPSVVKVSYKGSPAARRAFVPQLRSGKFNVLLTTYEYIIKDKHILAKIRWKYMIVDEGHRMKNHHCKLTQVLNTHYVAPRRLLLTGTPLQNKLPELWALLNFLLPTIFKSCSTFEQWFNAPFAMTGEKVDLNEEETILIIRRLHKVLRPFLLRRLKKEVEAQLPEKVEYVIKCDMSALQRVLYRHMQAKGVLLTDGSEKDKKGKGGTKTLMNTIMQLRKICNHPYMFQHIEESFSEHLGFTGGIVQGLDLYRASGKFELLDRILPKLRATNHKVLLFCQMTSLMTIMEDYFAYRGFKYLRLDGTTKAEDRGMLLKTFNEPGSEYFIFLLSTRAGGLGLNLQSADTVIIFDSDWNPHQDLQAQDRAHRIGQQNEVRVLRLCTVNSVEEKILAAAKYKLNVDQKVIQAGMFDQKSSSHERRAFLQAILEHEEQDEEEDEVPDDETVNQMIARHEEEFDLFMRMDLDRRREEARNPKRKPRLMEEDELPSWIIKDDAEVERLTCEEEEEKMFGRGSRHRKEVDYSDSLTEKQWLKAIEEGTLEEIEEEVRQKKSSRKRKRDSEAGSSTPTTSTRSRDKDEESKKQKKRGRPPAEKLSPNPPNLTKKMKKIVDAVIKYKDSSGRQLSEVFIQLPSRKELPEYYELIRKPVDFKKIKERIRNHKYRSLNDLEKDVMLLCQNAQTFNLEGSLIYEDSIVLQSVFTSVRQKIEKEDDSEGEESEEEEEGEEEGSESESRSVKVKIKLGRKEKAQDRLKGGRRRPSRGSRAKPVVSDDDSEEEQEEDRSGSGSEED

Results are given in words; binding and its absence hold for the method and conditions named. Binding seen in cells or lysates may run through a third protein. Some results given as binding are weak or reduced against the parent protein; the word gives no strength.

On to “Brg-1 (Brahma-related gene-1), ATPase subunit of the SWI/SNF chromatin remodeling complex (from UniProt Q3TKT4 1-1613)”, for which the binding entry is “binds”.

These data come from publication PMC2924311.
